For this assay, the target named is D(3) dopamine receptor (Rattus norvegicus, UniProt P19020).

Sequences of proteins named here, by UniProt entry; tags and fusion partners are left off.
UniProt P19020, whole entry: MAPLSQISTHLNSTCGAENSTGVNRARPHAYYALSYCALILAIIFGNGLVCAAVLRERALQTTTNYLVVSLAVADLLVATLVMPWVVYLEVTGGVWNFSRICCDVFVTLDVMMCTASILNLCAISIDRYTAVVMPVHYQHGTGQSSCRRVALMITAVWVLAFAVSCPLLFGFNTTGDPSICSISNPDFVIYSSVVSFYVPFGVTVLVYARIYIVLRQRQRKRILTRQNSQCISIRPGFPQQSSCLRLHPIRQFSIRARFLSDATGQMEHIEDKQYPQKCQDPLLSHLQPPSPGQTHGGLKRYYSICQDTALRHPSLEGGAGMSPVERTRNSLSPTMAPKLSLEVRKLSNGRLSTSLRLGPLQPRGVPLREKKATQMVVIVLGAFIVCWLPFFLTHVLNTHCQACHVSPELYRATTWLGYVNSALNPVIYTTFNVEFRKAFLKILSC

Molecule `CSc1ccc2c(c1)N(CC[C@@H]1CCCCN1C)c1ccccc1S2` [10-[2-(1-Methyl-piperidin-2-yl)-ethyl]-2-methylsulfanyl-10H-phenothiazine (thioridazine)] returned a Ki of 7.8 nM.

For orientation: Ki means a measure of affinity in units of concentration, obtained from inhibition or displacement. A low value points to tighter binding.

The values above are taken from BindingDB's records for doi:10.1038/347146a0 (U. 109, 1990).
